According to paper PMC2920863:

Target: T1, DERL1 (bovine (endogenous in corpus luteum)) (UniProt Q71SS4)
T1 sequence: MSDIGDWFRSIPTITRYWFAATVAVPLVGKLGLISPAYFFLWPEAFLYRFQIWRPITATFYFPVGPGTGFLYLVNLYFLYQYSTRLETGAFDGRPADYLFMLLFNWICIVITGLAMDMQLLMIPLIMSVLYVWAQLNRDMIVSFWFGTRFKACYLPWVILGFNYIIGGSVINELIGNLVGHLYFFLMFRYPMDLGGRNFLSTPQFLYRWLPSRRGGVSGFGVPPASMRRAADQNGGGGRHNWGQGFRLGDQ
Assay: co-IP; bovine luteal tissue lysate (100 ug; days 5, 11, 18 of the estrous cycle), precleared, immunoprecipitated with anti-DERL1 antibody and protein A Sepharose CL-4B at 4°C, washed 3 times in lysis buffer with 1% Nonidet-P40; precipitates and supernatants blotted for class I MHC, VIMP and p97

binding: no binding
Substance: VCP-interacting membrane protein (VIMP) (bovine (endogenous in corpus luteum))

No constants are given. Whether binding was seen depends on the method and setting. In cells and extracts the contact can be indirect.
